# Measurements reported in PubChem BioAssay AID1159578 (Peter MacCallum Cancer Centre, 2015)
# Purpose: 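Knock-downs that alter how fast lymphatic endothelial cells migrate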 (primary screen)
# Cell system: human lymphatic endothelial cells
# Knock-down reagent: siRNA pool against human genes, 40 nM
# Timing: 48 h after transfection
# Detection: 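High-content imaging of dye-stained cells in a scratch assay measures filled wound area and nuclei per well; duplicate means given as ratio to mock and robust z-score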
# Direction: migration robust z-score: higher = faster migration into the scratch; migration relative to mock: higher = more scratch area covered than mock; nuclei per well: higher = more cells in the well
# Call rule: 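Pools averaging fewer than 3300 nuclei are never called; remaining pools count as changed when migration robust z lies outside -2 to 2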
# Calls: active = migration changed; inactive = no migration change, or too few cells
# Here is a random part of about 18,000 deposited reagents. About 1,030 of them (5.7%) were called active. 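Inactive calls also include pools with fewer than 3300 nuclei, whose migration was not assessed.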 The raw values are shown without normalisation. A number with no mark means an inactive call.
Gene,migration robust z-score,migration class with cell-count check,migration relative to mock,"nuclei per well, duplicate mean"
GNG10,1.6,migration z between -2 and 2; enough cells,1.12,5900
FHIP2B,1.34,migration z between -2 and 2; enough cells,1.23,6022
B4GALT1,0.05,migration z between -2 and 2; enough cells,0.82,5856
GPER1,0,migration z between -2 and 2; enough cells,0.8,5157
ELAVL1,0.5,migration z between -2 and 2; enough cells,1.01,6280
BAK1,-1.82,migration z between -2 and 2; enough cells,0.45,5281
FAXDC2,0.52,migration z between -2 and 2; enough cells,1.02,5584
VWC2L,0.58,migration z between -2 and 2; enough cells,1.03,6171
ANTKMT,-1.41,migration z between -2 and 2; enough cells,0.52,4470
ADAD2,0.02,migration z between -2 and 2; enough cells,0.88,5464
DEFB4A,-0.42,migration z between -2 and 2; enough cells,0.78,5524
FOXA2,0.57,migration z between -2 and 2; enough cells,0.92,6796
PLGRKT,-0.18,migration z between -2 and 2; enough cells,0.84,7052
SEZ6,-2.46,under 3300 nuclei; migration not judged,0.24,3230
VGLL1,0.14,migration z between -2 and 2; enough cells,0.92,4694
SLC26A6,-0.4,migration z between -2 and 2; enough cells,0.78,5491
KRTAP5-3,0.74,migration z between -2 and 2; enough cells,1.08,5720
HYAL4,-5.57,under 3300 nuclei; migration not judged,-0.27,2168
ARHGAP22,-0.32,migration z between -2 and 2; enough cells,0.8,6812
RNF139,1.19,migration z between -2 and 2; enough cells,1.04,5756
EEFSEC,2.21 (active),migration z above 2; enough cells,1.23,3906
FCHSD1,1.54,migration z between -2 and 2; enough cells,1.29,5494
RSU1,-0.28,migration z between -2 and 2; enough cells,0.82,4976
CEL,0.55,migration z between -2 and 2; enough cells,0.91,6196
RSPH14,-0.32,migration z between -2 and 2; enough cells,0.8,6900
STAT5A,-0.08,migration z between -2 and 2; enough cells,0.86,5736
MAGEC1,0.22,migration z between -2 and 2; enough cells,0.94,6741
IFNA17,0.57,migration z between -2 and 2; enough cells,1.03,5688
GET1,0.67,migration z between -2 and 2; enough cells,1.05,5434
SYNGR4,-0.7,migration z between -2 and 2; enough cells,0.7,4526

Taken from above:
Entry for GET1 under “migration relative to mock”: 1.05
Entry of ADAD2 in “nuclei per well, duplicate mean”: 5464
Result for HYAL4 in “migration relative to mock”: -0.27

The listing continues.
Gene,migration robust z-score,migration class with cell-count check,migration relative to mock,"nuclei per well, duplicate mean"
OR13F1,0.2,migration z between -2 and 2; enough cells,0.94,6382
HOXB4,0.4,migration z between -2 and 2; enough cells,0.99,6828
CD1C,-0.28,migration z between -2 and 2; enough cells,0.81,5964
MTARC1,-3.22 (active),migration z below -2; enough cells,0.05,6429
EDDM3A,0.4,migration z between -2 and 2; enough cells,0.98,5720
MAG,-1.25,migration z between -2 and 2; enough cells,0.56,5786
RADIL,-1.6,migration z between -2 and 2; enough cells,0.47,6334
PDZK1IP1,-1.8,migration z between -2 and 2; enough cells,0.42,3807
CORO1B,-0.8,migration z between -2 and 2; enough cells,0.68,5826
PHF21B,-0.52,migration z between -2 and 2; enough cells,0.7,4726
ZSWIM9,-1.08,migration z between -2 and 2; enough cells,0.6,4622
SHANK3,0.15,migration z between -2 and 2; enough cells,0.84,6690
AMY2B,0.18,migration z between -2 and 2; enough cells,0.84,5708
TMEM17,0.52,migration z between -2 and 2; enough cells,1.02,5326
LVRN,0.36,migration z between -2 and 2; enough cells,0.98,5128
ADIPOR2,0.46,migration z between -2 and 2; enough cells,1.01,5438
GBP1,-1.04,migration z between -2 and 2; enough cells,0.61,5366
EFNB1,-1.31,migration z between -2 and 2; enough cells,0.55,5220
TRIM15,1.32,migration z between -2 and 2; enough cells,1.06,5976
CCDC18,2.66 (active),migration z above 2; enough cells,1.57,6092
LRP2,0.1,migration z between -2 and 2; enough cells,0.92,6972
ATP6V0A1,0.13,migration z between -2 and 2; enough cells,0.83,6756
SAR1A,0.44,migration z between -2 and 2; enough cells,1,5930
SPATA2L,0.36,migration z between -2 and 2; enough cells,0.98,5336
CIB1,-3.58 (active),migration z below -2; enough cells,0.12,4454
CUL4B,0.31,migration z between -2 and 2; enough cells,0.86,5270
NCOA1,0.57,migration z between -2 and 2; enough cells,0.92,4878
IER2,-0.92,migration z between -2 and 2; enough cells,0.65,6066
KRTAP4-12,0.52,migration z between -2 and 2; enough cells,1.02,3970
SLC4A7,-0.9,migration z between -2 and 2; enough cells,0.65,6116
TVP23A,-0.69,migration z between -2 and 2; enough cells,0.71,5370
HEMK1,0.43,migration z between -2 and 2; enough cells,1,6882
RPS10,-0.44,migration z between -2 and 2; enough cells,0.78,3839
XPO6,-0.31,migration z between -2 and 2; enough cells,0.8,6363
FAF1,0.45,migration z between -2 and 2; enough cells,1,5903
LAMC2,-2.59,under 3300 nuclei; migration not judged,0.22,2902
CSTA,-0.24,migration z between -2 and 2; enough cells,0.76,6380
SERPINB10,1.29,migration z between -2 and 2; enough cells,1.22,6139
ERVFRD-1,-0.06,migration z between -2 and 2; enough cells,0.86,5928
H2AB2,0.52,migration z between -2 and 2; enough cells,1.02,5980
TSR2,0.32,migration z between -2 and 2; enough cells,0.97,6056
ADAMTS14,0.36,migration z between -2 and 2; enough cells,0.88,5140
SREK1IP1,0.36,migration z between -2 and 2; enough cells,0.98,4105
